Test results taken from article PMC11277477.

B1: EhVps22, ELL complex EAP30 subunit (protein, UniProt C4LXI0 1-237)
chain: MSKRTIDLLCRQKEAMSTKGKEFCLVNQKERERQINLFKLKLEEFLQNNRYEITNDVNIQNMLYILCRKMGVEPLTTEKSYFNIFFGSNAFYNELTVQIIEECYKSRESNGGIIEINKLCELINKKRKSIIRQNDIFKAINQAKCLGEGLKVVTIYQQSYVISVPFELADDQQVVLTLLNKKPYFLEDELLIIGWSKERVKGTLVWLLNIGMLWVDDQFPLDGKTTRAYWTSLYNLF
B2: EhVps2 (protein, UniProt C4LZV3 1-246)
chain: MSRLFHKKTPQEIVREQKLNISKSIREITRESKRLEREEVRLTNEIRKMARLGRTNTVKVMAADLVKTKKQIDKLQVVIAQLNSTKMKLTEMSSMVAVTEAMNGVTNAMRKVNEATKLPAMQKVMNDFEKQNAELGIKNTMVSDMVNEGYEGDDIEEETELEVDKVLTEIGLDVENGLKPVPETRQRNTRLKERRQVQMEGGVKTRNEGNEQPEDLDTPGSRVPKAFNEGEDDEDEDDIVSRIANL
B3: Zinc-finger protein (protein, UniProt C4LYX5 1-395)
chain: MTYSRCGIVALTERKSRFLEIQTDRTSYLLGDVVLVTINAKMDHMPRYESVVLLVSCVGTISRTFTDVKMPPNPKVLSKTYFEMKNEFMNQNFPLSYSFSLPGTSPFTGEESSFVLSNSITSQIFKINAMHSYRIDLFVKQEGKIYLAEQKDIVVRRTFQQIQPSPSWNFEIDNFKIKIVLDKPSYYPQENGFLLFEVNSKVQRSTSIPKISFNQTLIFNFDDQQIVVKKQIIPQMSLPAFQPYYYGKRPLLFKIPEGLPPSHSTPLFKVEYSFDINIDLFYEGGTQTPLKVILKSTILAPPNLCGACVFMPLITNDFNPPSESILRPFWQEDKSTDTCGICGASFGLITRRHHCRRCGKVFCGSCCVDSVLMKDLGFDRPERVCKSCFKLIQSN
B4: Actin (EHI_008780) (protein, UniProt C4M0P2 1-763)
chain: MNFFKKQFNGNEFMVRCQCALRRISAQQKKYQTHSKTFKKQIIELLQNNERDKAFDKCTLLVQEDYKNEALTELIDVIDELMKNSEIIGTQRICPLELKSACGAILYASPYFPDHTEMMELRNMLIDKFGKTFPEECVNSKVISPKLLSRLSSKPVDSDVVNYYLDSIAKENNLITEENKLPEENPNEMLPADASKCELSRLLDGKQNNKYTFGVLTKNVIGKIKKGGDKVEAYISGPNNTKIIGEVTDLHDGTYDIVFVPPYAGNYLIAVYVNDKQIEQIGKLHILEANSLDLNKCIIEGNGIKGGYVNEKQNFTIIAKDSSGQTINHGGEPFAAYIAGPNDVKIIGDITDLKNGQYDVSYVPPIKGNYAIAVYHNTTLVQSVFNFSIEERSTQQQFPTIQQHIQPQITKSFIPVQGKPGEHFIIDIGSCSIKSGFESVGTPSIVTPTVVGKNLHQTSGFVEQNLYVGDEAIDKRGILSLEYPMQKEPIDYNSLKSVMKHSVEVAQGHPTVVITNGLTPLQMKINTSEILFNEGVQSIRFVDEAQAISRLYNKQNCVIVNIGGMMSWVIPVINGIVYNNISQKLPIAGVKCTEILMALLSKEGITLGSTSSEKEIARQIKEATGYIQVSHNSLIQPINYSLPDGTSLTIGNSRVQCFEPLFNPQLCAMNCSGISQMIATVLRNINGCTNEIILVGGGSLIKGLKERIENDIQQLLNFKINVIAEDNRKFASWLGANLLDKENIGKIITLDTWKQEGALCLDD
B5: EF-hand calcium-binding domain containing protein (protein, UniProt C4LVG7 1-264)
chain: MYGYPVGGMNLSGYPMNGICPIQPMGSVQVGVPVITNTPGMVTSVPVSALCLWNLVPSSNSWMNSRVQCQIMLDPMLRNNWWWNLVQSVSVTQFNSVYMWFLSVDTDRSGTIEINELMMAQFPGGITLTPQTALRLMRIFDVDFNGRISFYEYMGMHKFLEICYNVFIQCDTNRSGTMEPHEIIPALRILGFFVNQRTAIVLHRLFAHGSTICDLNCWIALCAFAAQTRTAYQLITMNPYYGIIQPFNPIEFGKFLDIITSLLE
B6: EhVps23 (protein, UniProt C4LUR9 1-283)
chain: MNLSKIDLTLSTVKPYYLYYLRVRVEITSVMQYYKFSATVRTYADGIILASLVGTIPIVYRGSQFCLPLCIMYPYDYPLSPPLFFTDPTPEMEVVPGHPYAMPNIVICHPILDRWSENVNTLSVLQVFVKDFSYMPPLRMKTSVIPSYSCYFPEWSSYYSYPQNYNQPIPLNHSHQLPSISSIYATESNPSIPPPQSQQLPSFQNTMDTLFTIDGFAPFKTKENECSQSPSHKKLFTKSSGPMITDLKAFVLGKQQHMKRSLPTISQTKKYKTRTTLTPLNTK
B7: EhVps32 (protein, UniProt C4M1A5 1-204)
chain: MSWFRRNTTKQTIAKMNEQIKTMEKKEEYDRKRMEMELEKAKECMKKGDKTGAAQHLRKKKMHEKNMNETINLRMNLESQILEMESAKVKVDTARSFAAANKEMTKINKEMDAGKIEKTMDELRENNEKSHEIGDLLGEDLQDIDQGELEDDLAELEDQVLDEQEDELAELEHDLPAPKAKVTKQKVTKKTLTQEEEDELAELM
B8: EhGrainin 1 (protein, UniProt C4MAF9 1-215)
chain: MSLFAIQAAADAWVAQHITAAYQADPLIQREWWYPLATSISGTEFKELQDFFVKTDKDKSGSLELDELKKAKFPGGIKLDENACRHLMRIFDVDLSGSIGFYEYLALMKFVKLATAVFTKFDKDKSGNLDEQEIYAALPELGFDLNMKACKILIQLCGKGLLTKKIQISQFISCAAYLGQIRTIYQHGFKQAQGDFNRATFSKFMNLTLMLMDDA
B9: EhVps4 (enzyme, UniProt C4LYN8 1-419)
chain: MTSLLDKGKEFSKKAMEEDEKGNSKEALEYYKKAIDCLVAHKKTEKNEKVVNIINKRVKEYVERAEYLKRMISGERVKSDDPDKEEDAENKARSNAVGNAVLKEKPNVHWEDVIGLEKAKEALQEAVILPIKFPQLFTDKRKPWTGILLFGPPGTGKSFLAKAVATEADSTFYSVSASSLLSKYLGESEKMVKELFETARKNKPSIIFVDEVDSLCSSRGDGETEASRRVKTEFLVQMNGVGNSMEGVLMLGATNIPWQLDTAIRRRFEKRIYIGLPDASARAKMIKWNLGKLPNQLTDNDFKILGEQTELFSGSDIATLCKDAIYQPVRTLQAATHFKYVTGPSPITGEIQNDLVTPCSPGDKGAMEMNWKQIEGSKLVVPPVTMMDFMKSIKNSRSSISVEDVNRHREWAEQFGQDG
B10: Dipeptidyl peptidase III (enzyme, UniProt C4LUC2 1-645)
chain: MSLSVKTPLKFLDCTHAWEQLTPEEQVYIHHLNKANWASFPISIKQCSVEAYDIFVAFLKMYKNISHVELLKKSEVSDSAKEQYEDYVSTFFANGGNYLSFGDKKFIPECSKEEFTTIINASGHNYFESLIDIIYDVTPCLIHFGIPPEGCTAYYSSNITKEDIEHCNALLQKKGMLLENTRIDKINNKLVIGIASIEEREEEYEDVILKYGWCHSELEMLVNELKECEKLELVQKDKNKKEMFKNYIQTFTNNYNLHKEAQRWWVRDQKPSVEFNVGFIETYEDPIGVRGEWEMFVAVVDKEKTKELTELVQRANEILPSLPWGKVFEKDVFESPDFTSIDIVGFGTSGLPIGINLPNYDDVRMEQFKNVSLSNVMACGSSQDNIPFISLEQQTLYKTCSPRALETQVALHELLGHGSGKYLRCDNGKKNFPENLTNPLTGEKVKYYQDKMTYDTVFKSLGSAMEECRAEAVGLFLTYNPIVKEILNLSEDVQYINWLSEMRSGLTGLKFYNPETKSWGQAHCQARFALFKAVEKSGAVEVVGENIVLHRELIPKGIEALKELLLKIQVCRATADTEYAHSFFIPLSTPNEDELKFREIVINKKIPRSGFIQCNTKMVDGKVSLITYKSDIEGMIQSFLDRYSF
B11: EhVps36 (protein, UniProt C4LTE5 1-235)
chain: MSNQPQYGIKSYIEAKEKDQNDIDNLFSNAFESLDTVIQYWDQLDKVATKFLKESNMEKENHEYQSLITYLDITEPVTKKLFGNNYEEALMDEIDEFCYLYFQKKKEMAIMLSDLYAIYNRARGILISPKELRNVCELLNDKGKYVGLMNVNKSLIIHERDFTLEKFQNTILDALKSRQKISSFTIAQHYGIQYAIVQTLMDQLEQNELICRDESEEGIMYYENLFNTQYLQYIK

These binders were tested against GST-EhADH recombinant protein (E. histolytica) (assay: affinity purification with mass spectrometry; GST-tagged bait (or GST control) bound to glutathione-Sepharose (200 μg) incubated with total trophozoite lysate (2 mg), 4 h, 4 °C; SDS-PAGE, silver stain, bands cut, nano UPLC-QToF; hits with reliability above 95%; only the target purified).
With B1 the binding was “binds”.
With B2 the binding was “binds”.
For B3, the binding was “binds”.
With B4 the binding was “binds”.
B5 was tested, and the binding was “binds”.
In the case of B6, the binding is reported as “binds”.
With B7 the binding was “binds”.
B8 was tested, and the binding was “binds”.
For B9, the binding was “binds”.
For B10, the binding was “binds”.
With B11 the binding was “binds”.

These are yes or no findings as the source states them, for the method shown. Binding seen in cells or lysates may run through a third protein. These calls come from enrichment with a bait or labelling near it, and not all partners need be listed.
